{
  "sequences": {"note": "Chains of the proteins cited; added tags and fusions are not shown. Residues count along the entry.", "UniProt P04004, residues 20-478": "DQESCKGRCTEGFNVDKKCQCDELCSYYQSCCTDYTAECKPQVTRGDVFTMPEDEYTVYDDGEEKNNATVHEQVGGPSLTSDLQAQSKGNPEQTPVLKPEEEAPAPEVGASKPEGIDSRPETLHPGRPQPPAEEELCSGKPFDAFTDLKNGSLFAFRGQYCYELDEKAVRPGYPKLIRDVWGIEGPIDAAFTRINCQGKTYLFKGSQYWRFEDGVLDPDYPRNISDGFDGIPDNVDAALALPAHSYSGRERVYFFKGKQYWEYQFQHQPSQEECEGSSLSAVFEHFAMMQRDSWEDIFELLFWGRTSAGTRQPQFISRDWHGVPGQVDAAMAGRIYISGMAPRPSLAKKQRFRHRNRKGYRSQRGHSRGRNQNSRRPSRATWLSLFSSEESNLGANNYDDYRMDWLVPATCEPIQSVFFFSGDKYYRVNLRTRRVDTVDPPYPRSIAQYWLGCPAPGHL", "UniProt Q9HCN6, residues 21-267": "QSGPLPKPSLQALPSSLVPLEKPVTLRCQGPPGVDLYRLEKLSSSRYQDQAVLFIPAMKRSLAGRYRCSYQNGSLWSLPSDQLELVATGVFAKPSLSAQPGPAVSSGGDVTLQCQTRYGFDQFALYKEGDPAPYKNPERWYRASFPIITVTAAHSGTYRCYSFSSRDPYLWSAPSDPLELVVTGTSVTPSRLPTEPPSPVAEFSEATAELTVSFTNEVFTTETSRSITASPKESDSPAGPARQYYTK"},
  "source": "paper PMC5838801",
  "molecular_target": "vitronectin (UniProt P04004)",
  "test": "ELISA; fibrinogen derivatives, collagen III, fibronectin or vitronectin immobilised on 96‐well plates in PBS overnight at 4 °C (10–200 μg mL^−1), blocked with 1% BSA/PBS; GPVI‐Fc2, GPVIex or control proteins in solution; bound GPVI detected with 1G5 and IRDye 800CW anti‐mouse IgG or with Alexa‐fluor 647 anti‐human Fc; binding to BSA subtracted; both purified",
  "note": "No constants are given. Whether binding was seen depends on the method and setting.",
  "data": [
    {"substance": "GPVI‐Fc2 (dimeric Fc‐fusion protein of the GPVI extracellular domain) (from UniProt Q9HCN6 21-267) (Fc fusion)", "values": [
      {"measurement": "binding", "value": "no binding (tested: 50 μg mL^−1)"}
    ]}
  ]
}
